{"source": "patent US4694069A", "about": "“Kibdelosporangium aridum SK&F-AAD-609” (SmithKline Beckman Corporation, priority 1985, dated 1987)", "system": "SK&F-AAD-609", "assay": "Susceptibility of SK&F-AAD-609 to antibiotics (diffusion method, BBL susceptibility disks)", "format": "cell-based, Kibdelosporangium aridum subsp. largum", "details": "disk 2 μg; 28° C., one week", "procedure": "Susceptibility of SK&F-AAD-609 to antibiotics was examined by placing BBL susceptibility disks on nutrient agar plates seeded with SK&F-ADD-609 as an agar overlay. Plates were placed at 4° C. for one hour to permit diffusion of the anitbiotics and, subsequently, incubated at 28° C. Diameters of the zones of inhibition were measured after incubation for one week.\nSusceptibility to Antibiotics. […] Chlortetracycline (5 μg) produced 17-18 mm zones of inhibition; tetracycline (5 μg) 9-12 mm zones; rifampin (5 μg) 10-12 mm zones; novobiocin (5 μg) 30-35 mm zones. All zones of inhibition contained at least a few resistant colonies."}
{"smiles": "CCC[C@@H]1C[C@@H](C(=O)N[C@@H]([C@H]2O[C@H](SC)[C@H](O)[C@@H](O)[C@H]2O)[C@H](C)Cl)N(C)C1", "note": "[clindamycin]", "values": [{"measurement": "Susceptibility (diffusion method)", "result": "resistant"}]}
